PubChem BioAssay AID652259 | Drosophila RNAi Screening Center – 2013
The screen tested about 22,000 reagents; this is a random part of those that have a named target and a result. Over the whole deposit, 233 (1.1%) got an active call. 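Light values are raw, unnormalised plate reads; the ratio scores behind the reporter calls were not deposited.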 Entries without a mark were called inactive. Names joined by + are all predicted targets of the reagent. Not stated in the record: the amount of reagent, the time to read-out, the dose of the treatment.

Purpose: 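Genome-wide hunt for genes that control Wingless pathway activity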 (primary screen)
Cell system: Drosophila clone 8 imaginal disc epithelial cells
Reagent: long dsRNA against Drosophila genes
Treatment: pathway stimulated by co-transfected Wingless expression plasmid
Read-out: 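Dual luciferase reads per well after Wingless plasmid stimulation: reporter firefly light and Renilla control light; activity is firefly divided by Renilla, a ratio not deposited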
Direction: firefly reporter light: higher = more Wg reporter light, before normalisation; Renilla control light: higher = more transfected or surviving cells
Call rule: 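Strong candidates differ from their plate mean by at least two out of four per-plate statistical tests; weak candidates meet just one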
Calls: active = candidate regulator (raises or lowers reporter); inactive = not a candidate

| gene | DRSC id | reporter change call, replicate 1 | firefly reporter light, replicate 1 | firefly reporter light, replicate 2 | Renilla control light, replicate 1 | Renilla control light, replicate 2 |
| --- | --- | --- | --- | --- | --- | --- |
| Tep5Psi (Thioester-containing protein 5 pseudogene) | DRSC02183 | – | 3314 | 5920 | 804 | 2823 |
| Tep5Psi (Thioester-containing protein 5 pseudogene) | DRSC02184 | – | 2903 | 5876 | 928 | 2070 |
| CR42548 (pseudo) | DRSC09514 | – | 3956 | – | 1685 | – |
| moody | DRSC18515 | – | 18072 | – | 16000 | – |
| CG30430 | DRSC22260 | – | 5.62e5 | 5.22e5 | 2.15e5 | 2.13e5 |
| Acbp6 (Acyl-CoA binding protein 6) | DRSC10217 | – | 2040 | 10196 | 1513 | 4545 |
| MtnA (Metallothionein A) | DRSC21588 | – | 7.13e5 | 6.50e5 | 3.66e5 | 2.39e5 |
| CG13898 | DRSC08368 | – | 5940 | – | 2953 | – |
| CG12316 | DRSC09879 | – | 2521 | – | 1560 | – |
| CG8501 | DRSC07198 | – | 8425 | – | 1450 | – |
| CG18301 | DRSC02662 | – | 2394 | 8946 | 572 | 3504 |
| roq (roquin) | DRSC10227 | – | 4452 | – | 2129 | – |
| CR42785 (pseudo) | DRSC04962 | – | 21627 | – | 10375 | – |
| COX7A (Cytochrome c oxidase subunit 7A) | DRSC16514 | – | 12043 | – | 2949 | – |
| glob3 (globin 3) | DRSC12261 | – | 19344 | – | 2432 | – |
| Osi7 (Osiris 7) | DRSC12176 | – | 15952 | – | 3844 | – |
| PGS1 (Phosphatidylglycerophosphate synthase 1) | DRSC16304 | – | 16417 | – | 3750 | – |
| pds5 | DRSC06670 | – | 5537 | – | 2320 | – |
| Tk (Tachykinin) | DRSC14954 | – | 22150 | – | 6176 | – |
| Tk (Tachykinin) | DRSC21972 | – | 5.68e5 | 6.25e5 | 3.51e5 | 3.26e5 |
| Ccp84Aa | DRSC12586 | – | 16848 | – | 4450 | – |
| Edc3 (Enhancer of decapping 3) | DRSC10620 | – | 5040 | – | 2501 | – |
| dgrn (degringolade) | DRSC12154 | – | 5258 | – | 2487 | – |
| alpha-Man-IIa (alpha-Mannosidase class II a) | DRSC15393 | – | 13888 | – | 4229 | – |

Limited to “Renilla control light, replicate 1”, for 6 of the entries above:
COX7A (Cytochrome c oxidase subunit 7A) [DRSC16514]	2949
glob3 (globin 3) [DRSC12261]	2432
Osi7 (Osiris 7) [DRSC12176]	3844
PGS1 (Phosphatidylglycerophosphate synthase 1) [DRSC16304]	3750
pds5 [DRSC06670]	2320
Tk (Tachykinin) [DRSC14954]	6176

Continued.
| gene | DRSC id | reporter change call, replicate 1 | firefly reporter light, replicate 1 | firefly reporter light, replicate 2 | Renilla control light, replicate 1 | Renilla control light, replicate 2 |
| --- | --- | --- | --- | --- | --- | --- |
| eRF3 (eukaryotic translation release factor 3) | DRSC03322 | – | 2145 | 4560 | 1168 | 3591 |
| CG10252 | DRSC14221 | – | 2387 | 7884 | 928 | 1840 |
| CG11882 | DRSC14425 | – | 8642 | – | 2875 | – |
| Ugt36A1 + CG15418 | DRSC00432 | – | 3133 | 8794 | 1341 | 3944 |
| Gmd (GDP-mannose 4,6-dehydratase) | DRSC03119 | – | 8381 | – | 3956 | – |
| CG9084 | DRSC07335 | – | 8538 | – | 2290 | – |
| Fkbp12 (FK506-binding protein 12kD) | DRSC07425 | – | 7036 | – | 2161 | – |
| CG15756 | DRSC19721 | – | 16938 | – | 9060 | – |
| sog (short gastrulation) | DRSC20379 | – | 16434 | – | 8288 | – |
| wupA (wings up A) | DRSC20385 | – | 24316 | – | 16954 | – |
| wupA (wings up A) | DRSC22547 | – | 6.46e5 | 6.60e5 | 2.36e5 | 1.30e5 |
| CG2930 | DRSC17730 | – | 2923 | 5235 | 1127 | 1926 |
| CG14391 | DRSC14850 | – | 15899 | – | 3739 | – |
| mRpS34 (mitochondrial ribosomal protein S34) | DRSC09918 | – | 6778 | – | 2746 | – |
| COX6AL2 (Cytochrome c oxidase subunit 6A-like 2) | DRSC10082 | – | 12120 | – | 2240 | – |
| slam (slow as molasses) | DRSC03240 | – | 2443 | 5593 | 230 | 2116 |
| CG5111 | DRSC15717 | – | 17908 | – | 12835 | – |
| Abcd1 (ATP binding cassette subfamily D member 1) | DRSC17157 | – | 1867 | 4771 | 890 | 2247 |
| NimB4 (Nimrod B4) | DRSC01884 | – | 6890 | – | 2285 | – |
| CG31693 | DRSC03674 | – | 13162 | – | 6570 | – |
| CG8545 | DRSC07210 | – | 9563 | – | 1848 | – |
| stau (staufen) | DRSC07698 | – | 17234 | – | 4962 | – |
| wts (warts) | DRSC17096 | Wg reporter activity raised (active) | 6896 | – | 552 | – |
| Spf45 | DRSC03826 | – | 2293 | 7475 | 833 | 2491 |
| CG13056 | DRSC09937 | – | 11244 | – | 4088 | – |
